Screen size: about 59,000 compounds; about 6,500 (11%) were called active. Inconclusive results, whose numbers are uncertain, are shown with a selection of clear calls. Cut-off read from the data, not from the text of the source: active = max dye-equivalent concentration above about 10 nM; inconclusive = mostly about 1.1 nM to 9.6 nM; inactive = weaker than that.
Experiment: qHTS Assay for Spectroscopic Profiling in A350 Spectral Region
Settings: Compound autofluorescence, 340/450 nm, Alexa 350 dye-equivalents; hits give high values
For `COc1ccc(CCNC(=O)CCSc2nc(-c3ccco3)cc(C(F)(F)F)n2)cc1`, the max dye-equivalent concentration was inconclusive: 4.1 nM. For `N/N=C1/c2ccccc2N[C@H]1OC(=O)Nc1ccccc1`, the max dye-equivalent concentration was “inactive”. For `Nc1ccc2oc(-c3cc(Br)ccc3Cl)nc2c1`, the max dye-equivalent concentration was inconclusive: 2.4 nM. In the case of `Cc1cc2cc(C(c3nnnn3Cc3ccco3)N3CCc4ccccc4C3)c(=O)[nH]c2cc1C` (stereo not given), the max dye-equivalent concentration is reported as active: 10 nM. For `COc1ccc(-c2nn3c(-c4ccccc4)nnc3s2)cc1OC`, the max dye-equivalent concentration was inconclusive: 5.8 nM. With `Cc1cccc2nc(CSCc3ccco3)cn12` the max dye-equivalent concentration was inconclusive: 2.6 nM. In the case of `O=S(=O)(Nc1ncnc2sc3c(c12)CCC3)c1ccc(Cl)s1`, the max dye-equivalent concentration is reported as inconclusive: 3.2 nM. With `O=C(Nc1cccc(-c2cn3cccnc3n2)c1)c1ccc2c(c1)OCO2` the max dye-equivalent concentration was active: 210 nM. In the case of `c1cncc(-c2nnc3sc(-c4ccco4)nn23)c1`, the max dye-equivalent concentration is reported as inconclusive: 2.5 nM. In the case of `Cc1ccc(/C=N/n2c(C)nnc2C)s1`, the max dye-equivalent concentration is reported as inconclusive: 2.8 nM. For `CC(=O)NCCNc1ncnc2ccc(-c3ccc4c(c3)OCO4)cc12`, the max dye-equivalent concentration was inconclusive: 1.8 nM. In the case of `N#CC(C#N)=CNCCN1CCN(C=C(C#N)C#N)CC1`, the max dye-equivalent concentration is reported as inconclusive: 1.7 nM. In the case of `CC(NS(=O)(=O)c1ccc(F)cc1)C(c1cccs1)N1CCN(C)CC1` (stereo not given), the max dye-equivalent concentration is reported as inconclusive: 3.7 nM. In the case of `CC(C)CCOC(=O)C1[C@H]2C(=O)N(Cc3cccs3)C[C@]23C=C[C@H]1O3` (stereo not given in full), the max dye-equivalent concentration is reported as inconclusive: 1.5 nM. With `O=C(c1nc2ncccn2n1)N1CCc2ccccc2C1` the max dye-equivalent concentration was inconclusive: 1.7 nM. For `CC1(C)Cc2c(c(N3CCOCC3)nc3sc(-c4ccc(C(=O)O)o4)c(N)c23)CO1`, the max dye-equivalent concentration was active: 210 nM. With `Cc1c(=O)n(OCc2c(F)cccc2F)c2ccccc2[n+]1[O-]` the max dye-equivalent concentration was inconclusive: 8.5 nM. With `O=S(=O)(/N=C(/Nc1cc(N2CCOCC2)ncn1)c1ccccc1)c1ccccc1` the max dye-equivalent concentration was inconclusive: 1.3 nM. With `O=C(Cn1nnc(-c2ccccc2NC(=O)c2cccs2)n1)Nc1ccccc1` the max dye-equivalent concentration was active: 11 nM. With `CCOC(=O)N1CCN(c2ccc(Cl)c(Cl)c2)CC1` the max dye-equivalent concentration was “inactive”. With `O=C(Nc1nccs1)c1ccc(Cl)c(S(=O)(=O)N2CCOCC2)c1` the max dye-equivalent concentration was “inactive”. With `CC(=O)c1c(C)nc(-c2ccc(Cl)cc2)nc1NC(=O)C(C)C` the max dye-equivalent concentration was “inactive”. For `CCOc1ccc(C2C(C#N)=C(N)SC(N)=C2C#N)cc1OC`, the max dye-equivalent concentration was inconclusive: 1.8 nM. For `Cc1ccccc1NS(=O)(=O)c1cc(S(C)(=O)=O)ccc1Cl`, the max dye-equivalent concentration was inconclusive: 1.2 nM. In the case of `O=c1c(O)c(-c2ccc(O)c(O)c2)oc2cc(O)cc(O)c12`, the max dye-equivalent concentration is reported as inconclusive: 6 nM. In the case of `Cc1ccc(C(=O)OCc2cc3ccccc3[nH]c2=O)cc1`, the max dye-equivalent concentration is reported as “inactive”. With `O=C(O)C/C(=C\c1ccco1)C(=O)O` the max dye-equivalent concentration was “inactive”. In the case of `OC(C#CCN1CCOCC1)(c1ccccc1)C1CC1` (stereo not given), the max dye-equivalent concentration is reported as inconclusive: 2.3 nM. With `CC(=O)c1cccc(NC(=O)N2CCCC2C(=O)Nc2ccccc2C)c1` (stereo not given) the max dye-equivalent concentration was “inactive”. With `O=C(Cn1cnc2ccccc2c1=O)Nc1ccc2c(c1)CCC2` the max dye-equivalent concentration was “inactive”. With `COc1nc(C)ccc1-c1noc(-c2ccco2)n1` the max dye-equivalent concentration was “inactive”. With `CCOc1cc(S(=O)(=O)NCc2ccco2)c(OCC)cc1-n1cnnn1` the max dye-equivalent concentration was inconclusive: 1.7 nM. In the case of `O=C(c1cccc(F)c1)N1CCC2(CCCN(c3cccc(-c4ccccc4)c3)C2)CC1`, the max dye-equivalent concentration is reported as “inactive”. For `COc1ccc(Oc2ncc3nc(-c4ccc(Cl)cc4)c(=O)n(CCC#N)c3n2)cc1`, the max dye-equivalent concentration was inconclusive: 9.9 nM. For `CN1CCN(CCCNN)CC1`, the max dye-equivalent concentration was “inactive”. For `Clc1ccc(/C=C\c2nc(Cl)c(-c3ccc(Cl)cc3)c(Cl)n2)cc1`, the max dye-equivalent concentration was inconclusive: 8.3 nM. In the case of `COc1ccc(C)cc1NC(=O)c1cc2ccccc2o1`, the max dye-equivalent concentration is reported as active: 69 nM. With `COc1ccc(NC(=O)CSc2nnc(-c3ccccc3C)n2N)cc1` the max dye-equivalent concentration was inconclusive: 1.1 nM. For `Cc1cccc2cc(CN(Cc3ccco3)C(c3nnnn3CCc3ccccc3)C(C)C)c(=O)[nH]c12` (stereo not given), the max dye-equivalent concentration was inconclusive: 1.3 nM. For `CCCN1C[C@@H](CSC)C[C@H]2c3cccc4[nH]cc(c34)C[C@@H]21`, the max dye-equivalent concentration was active: 20 nM. For `CCC(=NC(CC)CO)C1=C(O)CC(C)(C)CC1=O` (stereo not given), the max dye-equivalent concentration was inconclusive: 2.8 nM. With `Cc1c(C)n(Cc2ccccc2)c2ncnc(N)c12` the max dye-equivalent concentration was inconclusive: 1.9 nM. In the case of `COc1cccc(-c2cc(C(F)(F)F)n3ncc(C(=O)O)c3n2)c1`, the max dye-equivalent concentration is reported as inconclusive: 7 nM. In the case of `Cc1ccc(SCCC(=O)N2CCOCC2)cc1`, the max dye-equivalent concentration is reported as inconclusive: 5.7 nM. With `COc1ccc(NC(=O)C2CCCN2c2ccc(OC)c(OC)c2)cc1OC` (stereo not given) the max dye-equivalent concentration was “inactive”. With `O=c1[nH]cnc2c1oc1ccccc12` the max dye-equivalent concentration was “inactive”. In the case of `NS(=O)(=O)c1ccc(NC(=O)CSc2nnc(-c3cnccn3)n2-c2ccccc2)cc1`, the max dye-equivalent concentration is reported as “inactive”. For `CC(=O)Nc1ccc(S(=O)(=O)Nc2nccc(C3Cc4ccccc4C(=O)O3)n2)cc1` (stereo not given), the max dye-equivalent concentration was inconclusive: 1.1 nM. For `CC(=O)NCCNc1ncnc2ccc(-c3ccccc3Cl)cc12`, the max dye-equivalent concentration was “inactive”. In the case of `CCN1CCN(CCCNC(=O)C2c3ccccc3C(=O)N(C)C2c2ccc(OC)cc2)CC1` (stereo not given), the max dye-equivalent concentration is reported as inconclusive: 1.1 nM. With `CCOC(=O)c1ccccc1NC(=O)CSc1nc2ccccc2o1` the max dye-equivalent concentration was “inactive”. For `CN(C)c1ccc(-c2ccc3ncnc(NCc4ccccc4)c3c2)cc1`, the max dye-equivalent concentration was “inactive”. With `COc1ccccc1CNC(=O)Cn1cnc2ccccc2c1=O` the max dye-equivalent concentration was inconclusive: 1.4 nM. For `Cc1cc(C)nc(N2CCC(C(=O)NC3CCCc4ccccc43)CC2)n1` (stereo not given), the max dye-equivalent concentration was “inactive”. For `CCCCN(C)CCNC(=O)c1c[nH]c2ccc(S(=O)(=O)N(CC)CC)cc2c1=O`, the max dye-equivalent concentration was inconclusive: 4.6 nM. For `Clc1ccc(-c2nnc(N3CCCC3)nn2)cc1`, the max dye-equivalent concentration was inconclusive: 1.1 nM. For `Cc1nc(NCc2ccco2)c(C#N)c2c1COC(C)(C)C2`, the max dye-equivalent concentration was active: 14 nM. With `CCOC(=O)Cn1c2ccccc2c2nc3ccccc3nc21` the max dye-equivalent concentration was active: 56 nM. For `O=C(NCCCN1CCN(c2cccc(Cl)c2)CC1)c1nc(-c2ccncc2)no1`, the max dye-equivalent concentration was inconclusive: 1.2 nM. In the case of `COc1ccccc1Nc1ncnc2c1oc1ccccc12`, the max dye-equivalent concentration is reported as active: 84 nM.
